Drawing on paper PMC12361384, this text covers binding for 1 molecule.

Chains of the proteins cited; added tags and fusions are not shown.
UniProt P84078: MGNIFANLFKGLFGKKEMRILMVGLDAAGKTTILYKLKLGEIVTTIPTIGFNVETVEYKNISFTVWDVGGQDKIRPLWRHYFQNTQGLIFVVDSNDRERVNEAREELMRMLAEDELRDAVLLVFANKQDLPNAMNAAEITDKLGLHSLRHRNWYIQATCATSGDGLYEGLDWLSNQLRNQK

Test [1] deals with ARF1-EGFP (wild-type ADP-ribosylation factor 1 fused to EGFP) (mouse (cDNA library of C2C12 cells)) (UniProt P84078). Put plainly: co-IP; IP with anti-EGFP antibody, western blot; cells co-transfected with Plin2-mCherry and ARF1-EGFP (293T by the text, C2C12 by the legend), glucose-fed or glucose-starved for 8 h. (In general: In western blotting, separated proteins are transferred to a membrane and probed.)

Test [2] shares this target. Put plainly: co-IP; IP with anti-EGFP antibody, immunoblot; C2C12 cells co-transfected with Plin2-mCherry and ARF1-EGFP, glucose-fed or glucose-starved, with or without the AMPK inhibitor BAY-3827 (5 uM, 8 h).

These are yes or no findings as the source states them, for the method shown. In cells and extracts the contact can be indirect. Some entries that bind do so weakly or less than the wild type. Where a sequence is shown, tags or fusion partners need not be part of it.

B1: Plin2-mCherry (perilipin2 fused to mCherry) (protein, UniProt P43883 1-425)
chain: MAAAVVDPQQSVVMRVANLPLVSSTYDLVSSAYVSTKDQYPYLRSVCEMAEKGVKTVTSAAMTSALPIIQKLEPQIAVANTYACKGLDRMEERLPILNQPTSEIVASARGAVTGAKDVVTTTMAGAKDSVASTVSGVVDKTKGAVTGSVERTKSVVNGSINTVLGMVQFMNSGVDNAITKSELLVDQYFPLTQEELEMEAKKVEGFDMVQKPSNYERLESLSTKLCSRAYHQALSRVKEAKQKSQETISQLHSTVHLIEFARKNMHSANQKIQGAQDKLYVSWVEWKRSIGYDDTDESHCVEHIESRTLAIARNLTQQLQTTCQTVLVNAQGLPQNIQDQAKHLGVMAGDIYSVFRNAASFKEVSDGVLTSSKGQLQKMKESLDEVMDYFVNNTPLNWLVGPFYPQSTEVNKASLKVQQSEVKAQ
Regarding B1, the binding entry in test [1] and in test [2] was “binds” in each case.
